Measurements from the supplement of paper PMC9877034.
Structures can show the parent of a compound that is named as a salt. In all, about 1,000 compounds were measured (“cFRET/donor change relative to DMSO, normalised to beta-lapachone positive control (supercomplex I-IV assembly)”: median about 0.18, lowest 2% from about -1 on). Some of the results follow.

Tested on: C2C12 (NDUFB8-AcGFP / COX8A-DsRed-Monomer FRET reporter)
Test: cFRET/donor change relative to DMSO, normalised to beta-lapachone positive control (supercomplex I-IV assembly) (fraction of beta-lapachone effect); higher = more respiratory supercomplex assembly
Details: 40 µM; 24 h
Experimental: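 Cells were treated with 40 uM compound for 24 h and imaged on an IN Cell Analyzer 6000. Corrected FRET was divided by donor signal (cFRET/donor) and measured in two replicate experiments. The score is (mean cFRET/donor of compound - mean DMSO) / (mean beta-lapachone 40 uM - mean DMSO). Compounds flagged for prominent cell death, abnormal morphology or decreased cell number were excluded.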

Q: With `COc1ccc(C2(O)OC(=O)C(c3ccc4c(c3)OCO4)=C2Cc2cc(OC)c(OC)c(OC)c2)cc1` (stereo not drawn) as the compound, how does the cFRET/donor change read?
A: 0.173

Q: `CCCNC(=O)NS(=O)(=O)c1ccc(Cl)cc1` [Chlorpropamide] was tested. Which cFRET/donor change did it give?
A: 0.196

Q: For `CCN(CC)C(C)CN1c2ccccc2Sc2ccccc21` (stereo not drawn) [Ethopropazine hydrochloride], which cFRET/donor change is on record?
A: -0.00468

Q: For `Clc1cccc(Cl)c1NC1=NCCN1` [Clonidine hydrochloride], which cFRET/donor change is on record?
A: 0.448

Q: With `CN1CCN(C2Cc3ccccc3Sc3ccc(Cl)cc32)CC1` (racemic) [(±)-Octoclothepin maleate] as the compound, how does the cFRET/donor change read?
A: 0.337

Q: For `N=C(N)NCCCCNC(=N)N` [Arcaine sulfate], which cFRET/donor change is on record?
A: -0.135

Q: With `O=C(CCCCCN1CCN(c2ccccc2-c2ccccc2)CC1)NC1CCCc2ccccc21` (stereo not drawn) [LP 12 hydrochloride hydrate] as the compound, how does the cFRET/donor change read?
A: 1.51

Q: For `O=C(O)CCc1ccc(NCc2cccc(Oc3ccccc3)c2)cc1`, which cFRET/donor change is on record?
A: -0.4

Q: `O=C1NC(=O)c2cc(Nc3ccccc3)c(Nc3ccccc3)cc21` was tested. Which cFRET/donor change did it give?
A: 1.14

Q: Which cFRET/donor change does the source give for `O=C1NCC2(CCN(CCc3ccccc3)CC2)O1` [Fenspiride hydrochloride] here?
A: 0.47

Q: Which cFRET/donor change does the source give for `Cl.N[C@@H](CCC(=O)O)C(=O)O` [L-Glutamic acid hydrochloride] here?
A: 0.334

Q: `CSC(=N)N` [S-Methylisothiourea hemisulfate] was tested. Which cFRET/donor change did it give?
A: 0.319

Q: `CCN(CC)C(=O)c1ccc(O)c(OC)c1` [Vanillic acid diethylamide] was tested. Which cFRET/donor change did it give?
A: 0.26

Q: With `CN1C(C(=O)Nc2ccccn2)=C(O)c2ccccc2S1(=O)=O` [Piroxicam] as the compound, how does the cFRET/donor change read?
A: 0.243

Q: How did the cFRET/donor change turn out when `COCCOC(=O)C1=C(C)NC(C)=C(C(=O)OC(C)C)C1c1cccc([N+](=O)[O-])c1` (stereo not drawn) [Nimodipine] was run?
A: 0.119

Q: How did the cFRET/donor change turn out when `NCCS` [Cysteamine hydrochloride] was run?
A: 0.308

Q: Which cFRET/donor change does the source give for `CC(N)(Cc1ccc(O)cc1)C(=O)O` (racemic) [DL-alpha-Methyl-p-tyrosine] here?
A: -0.224

Q: How did the cFRET/donor change turn out when `COC(=O)[C@@H](N)Cc1ccc(O)c(O)c1` [L-3,4-Dihydroxyphenylalanine methyl ester hydrochloride] was run?
A: 0.37

Q: With `COc1ccc2c(c1)c(CC(=O)O)c(C)n2Cc1ccc(Cl)cc1` [1-(4-Chlorobenzyl)-5-methoxy-2-methylindole-3-acetic acid] as the compound, how does the cFRET/donor change read?
A: 0.248

Q: How did the cFRET/donor change turn out when `O=C(CCCN1CCC(O)(c2ccc(Cl)cc2)CC1)c1ccc(F)cc1` [Haloperidol] was run?
A: 0.135

Q: `CC(C[N+](C)(C)C)OC(N)=O` (stereo not drawn) [Bethanechol chloride] was tested. Which cFRET/donor change did it give?
A: -0.028

Q: For `N[C@@H](Cc1c[nH]cn1)C(=O)O` [L-Histidine hydrochloride], which cFRET/donor change is on record?
A: -0.0447

Q: With `Cc1cn([C@H]2C[C@H](N=[N+]=[N-])[C@@H](CO)O2)c(=O)[nH]c1=O` [3'-Azido-3'-deoxythymidine] as the compound, how does the cFRET/donor change read?
A: -0.184

Q: With `COc1ccc([C@@H]2Sc3ccccc3N(CCN(C)C)C(=O)[C@@H]2OC(C)=O)cc1` [Diltiazem hydrochloride] as the compound, how does the cFRET/donor change read?
A: 0.341

Q: Which cFRET/donor change does the source give for `O=C1N=C(O)NC1(c1ccccc1)c1ccccc1` [Phenytoin sodium] here?
A: 0.149

Q: For `CCOC(=O)[C@@H](N)Cc1ccc(O)c(O)c1` [L-Dopa ethyl ester], which cFRET/donor change is on record?
A: -0.101

Q: `O=C1Nc2ccc(I)cc2/C1=C/c1cc(Br)c(O)c(Br)c1` was tested. Which cFRET/donor change did it give?
A: -3

Q: `NCCCCN` [Putrescine dihydrochloride] was tested. Which cFRET/donor change did it give?
A: 0.0353

Q: How did the cFRET/donor change turn out when `Cc1cccc(-c2[nH]ncc2-c2ccc3ncccc3n2)n1` was run?
A: 0.0385

Q: How did the cFRET/donor change turn out when `O=C1OC(=O)[C@H]2[C@@H]1[C@@H]1CC[C@H]2O1` [Norcantharidin] was run?
A: 0.251

Q: With `Nc1nc2c(ncn2[C@@H]2O[C@H](CO)[C@@H](O)[C@@H]2O)c(=O)[nH]1` [Ara-G hydrate] as the compound, how does the cFRET/donor change read?
A: 0.198

Q: Which cFRET/donor change does the source give for `Cc1nnc(SCC2=C(C(=O)O)N3C(=O)[C@@H](NC(=O)Cn4cnnn4)[C@H]3SC2)s1` [Cefazolin sodium] here?
A: 0.345

Q: With `CCCCC1(C2CCCC2)Cc2cc(OCC(=O)O)c(Cl)c(Cl)c2C1=O` (stereo in doubt) [R(+)-Butylindazone] as the compound, how does the cFRET/donor change read?
A: 0.322

Q: For `Oc1cc(O)cc(/C=C/c2ccc(O)c(O)c2)c1` [Piceatannol], which cFRET/donor change is on record?
A: 1.61

Q: With `Nc1nnc(-c2cccc(Cl)c2Cl)c(N)n1` [Lamotrigine] as the compound, how does the cFRET/donor change read?
A: 0.327

Q: With `CC[C@@]1(O)C(=O)OCc2c1cc1n(c2=O)Cc2cc3c(CN(C)C)c(O)ccc3nc2-1` [Topotecan hydrochloride hydrate] as the compound, how does the cFRET/donor change read?
A: -3.92

Q: With `O=c1c2ccccc2[nH]c(=S)n1CCN1CCC(=C(c2ccc(F)cc2)c2ccc(F)cc2)CC1` [Diacylglycerol Kinase Inhibitor II] as the compound, how does the cFRET/donor change read?
A: 0.449

Q: With `CC(=O)NC[C@H]1CN(c2ccc(N3CCOCC3)c(F)c2)C(=O)O1` [Linezolid] as the compound, how does the cFRET/donor change read?
A: 0.372

Q: With `C[C@H](CCC(=O)NCCS(=O)(=O)O)[C@H]1CC[C@H]2[C@@H]3[C@H](O)C[C@@H]4C[C@H](O)CC[C@]4(C)[C@H]3C[C@H](O)[C@]12C` [Sodium Taurocholate hydrate] as the compound, how does the cFRET/donor change read?
A: 0.0638

Q: With `Cc1ccc(S(=O)(=O)/C=C/C#N)cc1` as the compound, how does the cFRET/donor change read?
A: 0.324

Q: Which cFRET/donor change does the source give for `CC1=C(C(=O)O)N2C(=O)[C@@H](NC(=O)[C@H](N)c3ccccc3)[C@H]2SC1` [Cephalexin hydrate] here?
A: 0.038

Q: `CCCc1c(OCCCOc2ccc(OCC(=O)O)cc2)ccc(C(C)=O)c1O` was tested. Which cFRET/donor change did it give?
A: 0.0477

Q: For `CN1CC(=O)N=C1NC(=O)Nc1cccc(Cl)c1` [Fenobam], which cFRET/donor change is on record?
A: -0.00878

Q: How did the cFRET/donor change turn out when `CNCC[C@@H](Oc1ccccc1C)c1ccccc1` [Tomoxetine] was run?
A: 0.163

Q: Which cFRET/donor change does the source give for `CSc1nc(N)c2ncn([C@@H]3O[C@H](COP(=O)(O)OP(=O)(O)O)[C@H](O)C3O)c2n1` (stereo partly drawn) here?
A: -0.144

Q: Which cFRET/donor change does the source give for `Nc1c(S(=O)(=O)O)cc(Nc2ccc(Nc3nc(Cl)nc(Nc4cccc(S(=O)(=O)O)c4)n3)c(S(=O)(=O)O)c2)c2c1C(=O)c1ccccc1C2=O` [Reactive Blue 2] here?
A: -0.336

Q: With `NS(=O)(=O)C#Cc1ccccc1` [Pifithrin-mu] as the compound, how does the cFRET/donor change read?
A: 0.551

Q: How did the cFRET/donor change turn out when `CCCCC1C(=O)N(c2ccccc2)N(c2ccccc2)C1=O` [Phenylbutazone] was run?
A: 0.0948

Q: For `N=C(N)SCCN` [2-(2-Aminoethyl)isothiourea dihydrobromide], which cFRET/donor change is on record?
A: -0.331

Q: Which cFRET/donor change does the source give for `N=C(N)N1CCc2ccccc2C1` [Debrisoquin sulfate] here?
A: 0.0301

Q: Which cFRET/donor change does the source give for `O=C(O)Cc1ccc(O)c(O)c1` [3,4-Dihydroxyphenylacetic acid] here?
A: 0.947

Q: With `CN1[C@@H]2CC[C@H]1C[C@@H](OC(c1ccccc1)c1ccccc1)C2` [Benztropine mesylate] as the compound, how does the cFRET/donor change read?
A: 0.586

Q: `CC1(C)C(=O)N(CCN2CCC(C(=O)c3ccc(F)cc3)CC2)c2ccccc21` [LY-310,762 hydrochloride] was tested. Which cFRET/donor change did it give?
A: 0.599

Q: How did the cFRET/donor change turn out when `CN(C)CCC(c1ccccc1)c1ccccn1` (stereo not drawn) [Pheniramine maleate] was run?
A: -0.0525

Q: Which cFRET/donor change does the source give for `Cc1c(O)cccc1C(=O)N[C@@H](CSc1ccccc1)[C@H](O)CN1C[C@H]2CCCC[C@H]2C[C@H]1C(=O)NC(C)(C)C` [Nelfinavir mesylate hydrate] here?
A: -0.54

Q: How did the cFRET/donor change turn out when `COc1ccc(/C=C2\COc3ccc(C)cc3C2=O)cc1O` was run?
A: 0.511

Q: `COC1=C(OC)C(=O)c2ccccc2C1=O` [2,3-Dimethoxy-1,4-naphthoquinone] was tested. Which cFRET/donor change did it give?
A: 0.433

Q: `CCN1CCCC1CNC(=O)c1cc(S(N)(=O)=O)ccc1OC` (racemic) [(±)-Sulpiride] was tested. Which cFRET/donor change did it give?
A: -0.161

Q: With `CN(C)C(=O)N=NC(=O)N(C)C` [N,N,N',N'-Tetramethylazodicarboxamide] as the compound, how does the cFRET/donor change read?
A: 0.0995

Q: How did the cFRET/donor change turn out when `CCN1/C(=C/C(C)=O)Sc2ccc(OC)cc21` was run?
A: 1.45

Q: For `Cc1nc(N=Nc2ccc(S(=O)(=O)O)cc2S(=O)(=O)O)c(COP(=O)(O)O)c(C=O)c1O`, which cFRET/donor change is on record?
A: 0.328

Q: How did the cFRET/donor change turn out when `CCCCC[C@H](CC(=O)NO)C(=O)N[C@H](C(=O)N1CCC[C@H]1CO)C(C)C` [Actinonin] was run?
A: 0.125

Q: How did the cFRET/donor change turn out when `CC(=O)OC(C)C[N+](C)(C)C` (stereo not drawn) [Acetyl-beta-methylcholine chloride] was run?
A: 0.0536

Q: `C=CCc1ccccc1OCC(O)CNC(C)C` (stereo not drawn) [Alprenolol hydrochloride] was tested. Which cFRET/donor change did it give?
A: 0.0171

Q: How did the cFRET/donor change turn out when `COc1cc(CC(=O)O)ccc1O` [4-Hydroxy-3-methoxyphenylacetic acid] was run?
A: -0.134

Q: Which cFRET/donor change does the source give for `CCOc1ncc(S(=O)(=O)N2CCN(CC)CC2)cc1-c1nc(=O)c2nn(CCOC)c(CC)c2[nH]1` [Gisadenafil besylate salt] here?
A: 0.0753

Q: Which cFRET/donor change does the source give for `CCNc1nc2c(ncn2[C@H]2C[C@H](O)[C@@H](CO)O2)c(=O)[nH]1` [N2-Ethyl-2'-deoxyguanosine] here?
A: 0.301

Q: Which cFRET/donor change does the source give for `NC(=O)NO` [Hydroxyurea] here?
A: 0.118

Q: `CC[C@]1(O)C[C@@H]2CN(CCc3c([nH]c4ccccc34)[C@@](C(=O)OC)(c3cc4c(cc3OC)N(C)[C@H]3[C@@](O)(C(=O)OC)[C@H](OC(C)=O)[C@]5(CC)C=CCN6CC[C@]43[C@@H]65)C2)C1` [Vinblastine sulfate salt] was tested. Which cFRET/donor change did it give?
A: 0.973

Q: With `CCCCC#Cc1nc(NC)c2ncn([C@@H]3O[C@H](CO)[C@@H](O)[C@H]3O)c2n1` as the compound, how does the cFRET/donor change read?
A: 0.242

Q: With `O=C(Nc1ccc2[nH]ncc2c1)C1CCC1` [Rhodblock 6] as the compound, how does the cFRET/donor change read?
A: 0.156

Q: How did the cFRET/donor change turn out when `Nc1nccc2c1ncn2[C@@H]1O[C@H](CO)[C@@H](O)[C@H]1O` [3-deazaadenosine] was run?
A: 0.17

Q: With `CC(C)(Oc1ccc(C2CC2(Cl)Cl)cc1)C(=O)O` (stereo not drawn) [Ciprofibrate] as the compound, how does the cFRET/donor change read?
A: -0.0424

Q: Which cFRET/donor change does the source give for `CNC1(C)C2CCC(C2)C1(C)C` (stereo not drawn) [Mecamylamine hydrochloride] here?
A: 0.164

Q: For `COc1cccc(OC)c1-c1cc(C(=O)NC2(C(=O)O)C3CC4CC(C3)CC2C4)nn1-c1ccc(C(=O)N(C)CCCN(C)C)cc1C(C)C` (stereo not drawn), which cFRET/donor change is on record?
A: 0.153

Q: For `COc1ccc(CCN(C)CCCC(C#N)(c2ccc(OC)c(OC)c2)C(C)C)cc1OC` (racemic) [(±)-Verapamil hydrochloride], which cFRET/donor change is on record?
A: 0.448

Q: With `CC(C)N(CCC(=O)c1ccc2ccccc2c1)Cc1ccccc1` as the compound, how does the cFRET/donor change read?
A: 0.232

Q: With `CCOC(=O)c1ccc(C#Cc2ccc3c(c2)C(C)(C)CCS3)nc1` [Tazarotene] as the compound, how does the cFRET/donor change read?
A: 0.454
